PubChem BioAssay AID1259254 | NCATS – 2017

Aim: 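Genome-wide screen for genes that prevent DNA re-replication in cancer cells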 (primary screen)
System: human HCT116 colorectal cancer cells
Reagents: single siRNA against human genes
Time to read-out: 3 days
Measured: 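Imaged Hoechst DNA stain sorts each cell into a cycle phase by DNA amount; per plate, G2 fraction set to 0% for non-targeting and 100% for GMNN siRNA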
Scale: G2 robust z-score and G2 cells, % of GMNN control: higher = more G2 cells, more excess DNA replication; raw share of cells in G2: higher = larger share of cells with G2 DNA content
Call rule: 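An siRNA counts as active if its G2 robust z-score lies at least 5 MADs above the screen median; here such calls match roughly 38% of GMNN control or more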
The deposit covers about 59,000 reagents; shown is a random part of them. In the full data, about 1,550 (2.6%) were called active. 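G2 share is only a proxy for re-replication; each gene was hit by three separate siRNAs, and active genes were retested.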 Raw values are not corrected between plates. Entries without a mark were called inactive. The record does not give: the amount of reagent.

gene knocked down	PubChem SID	G2 robust z-score	G2 cells, % of GMNN control	raw share of cells in G2 (%)
ADRA1A	SID160714923	0.0776	3.51	7.1
ADRA1A	SID160714935	-0.878	-3.21	3.39
ADRA1A	SID160714946	-0.389	0.233	3.34
CHST7	SID160745062	-0.927	-3.55	4.87
CHST7	SID160745063	0.302	5.1	6.26
CHST7	SID160745064	-0.841	-2.95	3.1
UBAP2L	SID160723375	0.961	9.73	9.73
UBAP2L	SID160723376	0.000778	2.97	5.18
UBAP2L	SID160723377	3.57	28.1	13.6
PRR23C	SID160766112	-0.486	-0.455	3.62
PRR23C	SID160766113	-0.516	-0.661	3.12
PRR23C	SID160766114	-1.06	-4.5	2.7
GSAP	SID160741571	-0.736	-2.21	2.81
GSAP	SID160741573	0.0302	3.18	5.61
GSAP	SID160741574	-0.776	-2.49	2.37
BAMBI	SID160737016	6.4 (active)	48	22.5
BAMBI	SID160737017	0.238	4.64	5.95
BAMBI	SID160737018	-0.519	-0.685	3.06
ATP2B1	SID160775937	-1.41	-6.93	2.77
ATP2B1	SID160775948	-1	-4.07	3.4
ATP2B1	SID160775959	-0.858	-3.07	3.18
PLEKHM3	SID160766077	0.984	9.89	7.16
PLEKHM3	SID160766078	-0.793	-2.61	2.27
PLEKHM3	SID160766079	-0.939	-3.64	3.07
OR51B6	SID160766342	0.169	4.16	5.2
OR51B6	SID160766343	0.685	7.79	6.79
OR51B6	SID160766344	-0.27	1.06	5.09
STRBP	SID160733602	0.002	2.98	4.09
STRBP	SID160743590	-0.232	1.34	5.04
STRBP	SID160743591	-1.24	-5.78	1.75
AMN1	SID160760606	3.85	30.1	14.4
AMN1	SID160760607	-0.128	2.07	3.65
AMN1	SID160760608	-0.333	0.621	2.96
WFDC3	SID160757829	-0.256	1.17	5.19
WFDC3	SID160757830	1.29	12	9.1
WFDC3	SID160757832	-1.54	-7.85	2.21
ZC3H6	SID160765499	-0.369	0.368	3.9
ZC3H6	SID160765500	0.215	4.48	5.35
ZC3H6	SID160765501	0.352	5.45	6.97
GUSBP18	SID160725626	0.0221	3.12	4.06
GUSBP18	SID160768858	-0.645	-1.57	3.04
GUSBP18	SID160768860	-0.0779	2.42	4.14
CDC23	SID160720623	1.76	15.4	10.7
CDC23	SID160720624	0.662	7.63	7.44
CDC23	SID160720625	1	10	9.1
NIBAN1	SID160755440	0.284	4.97	6.08
NIBAN1	SID160755442	0.754	8.27	5.79
NIBAN1	SID160755443	0.44	6.06	3.59
SNRPC	SID160717126	-0.363	0.413	5.31
SNRPC	SID160717127	0.343	5.38	6.03
SNRPC	SID160734196	1.85	16	9.01
MYO6	SID160731265	-0.269	1.07	3.55
MYO6	SID160777715	-0.106	2.22	6.35
MYO6	SID160777716	0.21	4.44	7.08
POLA2	SID160736764	-1.17	-5.23	2.45
POLA2	SID160736765	-1.07	-4.57	4.09
POLA2	SID160736766	-0.248	1.23	4.39
STK4	SID160717478	-0.267	1.09	5.97
STK4	SID160717479	1.29	12	9.46
STK4	SID160717480	-0.0256	2.79	5.01
ZNF784	SID160758573	-0.42	0.0125	3.1
ZNF784	SID160758575	-1.01	-4.14	1.73
ZNF784	SID160758576	-0.267	1.09	3.91
KLF6	SID160746731	-0.101	2.26	4.36
KLF6	SID160746741	1.95	16.7	12.7
KLF6	SID160746750	1.21	11.5	7.28
MGAT4C	SID160737081	-0.57	-1.04	5.69
MGAT4C	SID160737082	-0.486	-0.451	4.04
MGAT4C	SID160737083	-1.11	-4.86	2.4
NPDC1	SID160733644	-0.279	1	3.35
NPDC1	SID160745103	-1.03	-4.31	2.65
NPDC1	SID160745104	0.267	4.84	6.77
ASB16	SID160754313	-0.346	0.535	4.31
ASB16	SID160754314	0.472	6.29	4.97
ASB16	SID160754315	0.968	9.78	6.02
CACNA1S	SID160735361	1.04	10.3	9.04
CACNA1S	SID160735371	-0.251	1.2	5.19
CACNA1S	SID160735382	1.19	11.3	8.8
CUTA	SID160741061	1.53	13.7	8.52
CUTA	SID160741062	0.481	6.35	6.94
CUTA	SID160741063	-0.833	-2.89	2.24
DNAI3	SID160756541	1.21	11.5	8.5
DNAI3	SID160756542	-0.148	1.93	3.71
DNAI3	SID160756543	-0.531	-0.769	2.3
NKIRAS1	SID160738843	-0.997	-4.05	2.67
NKIRAS1	SID160738844	-1.48	-7.44	2.79
NKIRAS1	SID160738845	-1.01	-4.14	2.81

Laid out differently: results already given
GUSBP18 [SID160768858]
- G2 robust z-score: -0.645
- G2 cells, % of GMNN control: -1.57
- raw share of cells in G2 (%): 3.04

GUSBP18 [SID160768860]
- G2 robust z-score: -0.0779
- G2 cells, % of GMNN control: 2.42
- raw share of cells in G2 (%): 4.14

CDC23 [SID160720623]
- G2 robust z-score: 1.76
- G2 cells, % of GMNN control: 15.4
- raw share of cells in G2 (%): 10.7

CDC23 [SID160720624]
- G2 robust z-score: 0.662
- G2 cells, % of GMNN control: 7.63
- raw share of cells in G2 (%): 7.44

CDC23 [SID160720625]
- G2 robust z-score: 1
- G2 cells, % of GMNN control: 10
- raw share of cells in G2 (%): 9.1

NIBAN1 [SID160755440]
- G2 robust z-score: 0.284
- G2 cells, % of GMNN control: 4.97
- raw share of cells in G2 (%): 6.08

NIBAN1 [SID160755442]
- G2 robust z-score: 0.754
- G2 cells, % of GMNN control: 8.27
- raw share of cells in G2 (%): 5.79

NIBAN1 [SID160755443]
- G2 robust z-score: 0.44
- G2 cells, % of GMNN control: 6.06
- raw share of cells in G2 (%): 3.59

SNRPC [SID160717126]
- G2 robust z-score: -0.363
- G2 cells, % of GMNN control: 0.413
- raw share of cells in G2 (%): 5.31
